From the supplement of paper PMC10689618
Several values for one entry are separate records, joined by “and”; a condition that tells them apart may be missing. Identical values can stand only once. Counter-ions that a name gives are not always drawn. The list shows a part of the results. Single values are uncertain, as repeats are few or missing.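 Labelled rat cortical synaptosomes were engulfed by primary human fetal astrocytes. Engulfment equaled a red/green ratio, corrected for calcein live-cell signal and normalized to the plate median. Compounds were toxic when calcein dropped over 30%, and reduced phagocytosis when below 70% of the median above 5 µM.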

Assays:
Details in all cases: 24 h
Human fetal astrocytes [1] = experiment: loss of total cells relative to no-compound high-control median (toxicity); higher = more toxic (fewer cells)
Human fetal astrocytes [2] = experiment: synaptosome phagocytosis (pHrodo/calcein intensity ratio) relative to plate median of data wells; higher = more phagocytosis
Human fetal astrocytes [3] = experiment: loss of total cells relative to no-compound high-control median (toxicity); higher = more toxic (fewer cells); remark: listed apart in the source
Human fetal astrocytes [4] = experiment: synaptosome phagocytosis (pHrodo/calcein intensity ratio) relative to plate median of data wells; higher = more phagocytosis; remark: listed apart in the source

C=CC[S+]([O-])C[C@H](N)C(=O)O (mixture of isomers)
loss of total cells (Human fetal astrocytes [1]; 1.39 µM): -9% | loss of total cells (Human fetal astrocytes [1]; 2.78 µM): -6.1% | loss of total cells (Human fetal astrocytes [1]; 5.56 µM): -2.9% | loss of total cells (Human fetal astrocytes [1]; 11.11 µM): 8.8% | loss of total cells (Human fetal astrocytes [1]; 22.22 µM): 14.1% | synaptosome phagocytosis (Human fetal astrocytes [2]; 1.39 µM): 120% | synaptosome phagocytosis (Human fetal astrocytes [2]; 2.78 µM): 108% | synaptosome phagocytosis (Human fetal astrocytes [2]; 5.56 µM): 137% | synaptosome phagocytosis (Human fetal astrocytes [2]; 11.11 µM): 96.1% | synaptosome phagocytosis (Human fetal astrocytes [2]; 22.22 µM): 80.3%

Nc1nc(=O)c2nc(CNc3ccc(C(=O)N[C@@H](CCC(=O)O)C(=O)O)cc3)cnc2[nH]1
loss of total cells (Human fetal astrocytes [1]; 1.39 µM): -0.8% | loss of total cells (Human fetal astrocytes [1]; 2.78 µM): 2.1% | loss of total cells (Human fetal astrocytes [1]; 5.56 µM): 26.1% | loss of total cells (Human fetal astrocytes [1]; 11.11 µM): 0% | loss of total cells (Human fetal astrocytes [1]; 22.22 µM): 22.7% | synaptosome phagocytosis (Human fetal astrocytes [2]; 1.39 µM): 120% | synaptosome phagocytosis (Human fetal astrocytes [2]; 2.78 µM): 89.7% | synaptosome phagocytosis (Human fetal astrocytes [2]; 5.56 µM): 115% | synaptosome phagocytosis (Human fetal astrocytes [2]; 11.11 µM): 116% | synaptosome phagocytosis (Human fetal astrocytes [2]; 22.22 µM): 121%

O=c1oc2ccccc2c(O)c1Cc1c(O)c2ccccc2oc1=O
loss of total cells (Human fetal astrocytes [1]; 1.39 µM): 8.6% | loss of total cells (Human fetal astrocytes [1]; 2.78 µM): -20% | loss of total cells (Human fetal astrocytes [1]; 5.56 µM): -9.8% | loss of total cells (Human fetal astrocytes [1]; 11.11 µM): 7.8% | loss of total cells (Human fetal astrocytes [1]; 22.22 µM): -6.4% | synaptosome phagocytosis (Human fetal astrocytes [2]; 1.39 µM): 115% | synaptosome phagocytosis (Human fetal astrocytes [2]; 2.78 µM): 93.3% | synaptosome phagocytosis (Human fetal astrocytes [2]; 5.56 µM): 117% | synaptosome phagocytosis (Human fetal astrocytes [2]; 11.11 µM): 82.6% | synaptosome phagocytosis (Human fetal astrocytes [2]; 22.22 µM): 92.4%

NCCCC[C@H](N[C@@H](CCc1ccccc1)C(=O)O)C(=O)N1CCC[C@H]1C(=O)O
loss of total cells (Human fetal astrocytes [1]; 1.39 µM): 2.5% | loss of total cells (Human fetal astrocytes [1]; 2.78 µM): 2.1% | loss of total cells (Human fetal astrocytes [1]; 5.56 µM): 14.1% | loss of total cells (Human fetal astrocytes [1]; 11.11 µM): 7.8% | loss of total cells (Human fetal astrocytes [1]; 22.22 µM): 17% | synaptosome phagocytosis (Human fetal astrocytes [2]; 1.39 µM): 78% | synaptosome phagocytosis (Human fetal astrocytes [2]; 2.78 µM): 116% | synaptosome phagocytosis (Human fetal astrocytes [2]; 5.56 µM): 106% | synaptosome phagocytosis (Human fetal astrocytes [2]; 11.11 µM): 110% | synaptosome phagocytosis (Human fetal astrocytes [2]; 22.22 µM): 103%

CC(C)C[C@H](N)C(=O)N[C@@H](C)C(=O)O
loss of total cells (Human fetal astrocytes [1]; 1.39 µM): 9% | loss of total cells (Human fetal astrocytes [1]; 2.78 µM): 15.5% | loss of total cells (Human fetal astrocytes [1]; 5.56 µM): 10.9% | loss of total cells (Human fetal astrocytes [1]; 11.11 µM): -1.3% | loss of total cells (Human fetal astrocytes [1]; 22.22 µM): 16.7% | synaptosome phagocytosis (Human fetal astrocytes [2]; 1.39 µM): 99.1% | synaptosome phagocytosis (Human fetal astrocytes [2]; 2.78 µM): 159% | synaptosome phagocytosis (Human fetal astrocytes [2]; 5.56 µM): 128% | synaptosome phagocytosis (Human fetal astrocytes [2]; 11.11 µM): 117% | synaptosome phagocytosis (Human fetal astrocytes [2]; 22.22 µM): 129%

C[C@H](CCC(=O)O)[C@H]1CC[C@H]2[C@@H]3CC[C@@H]4C[C@H](O)CC[C@]4(C)[C@H]3C[C@H](O)[C@]12C
loss of total cells (Human fetal astrocytes [1]; 1.39 µM): -2.5% | loss of total cells (Human fetal astrocytes [1]; 2.78 µM): 5.3% | loss of total cells (Human fetal astrocytes [1]; 5.56 µM): -8.4% | loss of total cells (Human fetal astrocytes [1]; 11.11 µM): 27.7% | loss of total cells (Human fetal astrocytes [1]; 22.22 µM): -3.3% | synaptosome phagocytosis (Human fetal astrocytes [2]; 1.39 µM): 103% | synaptosome phagocytosis (Human fetal astrocytes [2]; 2.78 µM): 93% | synaptosome phagocytosis (Human fetal astrocytes [2]; 5.56 µM): 105% | synaptosome phagocytosis (Human fetal astrocytes [2]; 11.11 µM): 122% | synaptosome phagocytosis (Human fetal astrocytes [2]; 22.22 µM): 107%

COc1cc2c(cc1OC)-c1cc3ccc(OC)c(OC)c3c[n+]1CC2
loss of total cells (Human fetal astrocytes [1]; 1.39 µM): 11.2% and -11.2% | loss of total cells (Human fetal astrocytes [1]; 2.78 µM): 9.7% and -1.1% | loss of total cells (Human fetal astrocytes [1]; 22.22 µM): 17.4% and 2.3% | synaptosome phagocytosis (Human fetal astrocytes [2]; 1.39 µM): 123% and 111% | synaptosome phagocytosis (Human fetal astrocytes [2]; 22.22 µM): 65.3% and 66.5%

Fc1ccc(C(c2ccc(F)cc2)N2CCN(C/C=C/c3ccccc3)CC2)cc1 [Flunarizine dihydrochloride]
loss of total cells (Human fetal astrocytes [3]; 1.39 µM): 5.4% | loss of total cells (Human fetal astrocytes [3]; 2.78 µM): -29.9% | loss of total cells (Human fetal astrocytes [3]; 5.56 µM): -15.6% | loss of total cells (Human fetal astrocytes [3]; 11.11 µM): 13% | loss of total cells (Human fetal astrocytes [3]; 22.22 µM): 33.6% | synaptosome phagocytosis (Human fetal astrocytes [4]; 1.39 µM): 84.6% | synaptosome phagocytosis (Human fetal astrocytes [4]; 2.78 µM): 75.1% | synaptosome phagocytosis (Human fetal astrocytes [4]; 5.56 µM): 76.4% | synaptosome phagocytosis (Human fetal astrocytes [4]; 11.11 µM): 91.7% | synaptosome phagocytosis (Human fetal astrocytes [4]; 22.22 µM): 57.6%

CCCCCC(C)N (stereo not given)
loss of total cells (Human fetal astrocytes [1]; 1.39 µM): -0.3% | loss of total cells (Human fetal astrocytes [1]; 2.78 µM): -9.8% | loss of total cells (Human fetal astrocytes [1]; 5.56 µM): -7.7% | loss of total cells (Human fetal astrocytes [1]; 11.11 µM): 6.1% | loss of total cells (Human fetal astrocytes [1]; 22.22 µM): 31.3% | synaptosome phagocytosis (Human fetal astrocytes [2]; 1.39 µM): 118% | synaptosome phagocytosis (Human fetal astrocytes [2]; 2.78 µM): 95.7% | synaptosome phagocytosis (Human fetal astrocytes [2]; 5.56 µM): 94.9% | synaptosome phagocytosis (Human fetal astrocytes [2]; 11.11 µM): 107% | synaptosome phagocytosis (Human fetal astrocytes [2]; 22.22 µM): 114%

CC1(C)O[C@@H]2C[C@H]3[C@@H]4C[C@H](F)C5=CC(=O)C=C[C@]5(C)[C@H]4[C@@H](O)C[C@]3(C)[C@]2(C(=O)CO)O1
loss of total cells (Human fetal astrocytes [1]; 1.39 µM): -2.5% | loss of total cells (Human fetal astrocytes [1]; 2.78 µM): -5.2% | loss of total cells (Human fetal astrocytes [1]; 5.56 µM): 14.1% | loss of total cells (Human fetal astrocytes [1]; 11.11 µM): -4.7% | loss of total cells (Human fetal astrocytes [1]; 22.22 µM): 10.8% | synaptosome phagocytosis (Human fetal astrocytes [2]; 1.39 µM): 118% | synaptosome phagocytosis (Human fetal astrocytes [2]; 2.78 µM): 88.4% | synaptosome phagocytosis (Human fetal astrocytes [2]; 5.56 µM): 89.9% | synaptosome phagocytosis (Human fetal astrocytes [2]; 11.11 µM): 84% | synaptosome phagocytosis (Human fetal astrocytes [2]; 22.22 µM): 140%
